Results taken from the supplement of paper PMC7661543.
The effect of the compound repeats well; differences between the knockouts mostly do not.

Test system: SKBR3
Experiment: relative cell number vs DMSO control (72 h) (% of DMSO); higher = less growth inhibition (more cells)
Description: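 QMAP-Seq: a pool of 5 breast cancer cell lines (ZR-75-1, SKBR3, HCC-38, MDA-MB-231, BT-20), each carrying 12 doxycycline-inducible Cas9 sgRNA perturbations (11 knockouts plus non-targeting sgNT), was treated with compounds for 72 h at four 10-fold doses (10 nM-10 uM or 1 nM-1 uM range). Barcodes were amplified and sequenced, and cell number was interpolated from 293T spike-in standard curves. The result is expressed as % of the median of DMSO wells. Two biological replicates.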

CCOc1ccccc1-n1c(C(C)N2CCN(C(=O)COc3ccc(Cl)cc3)CC2)nc2ccccc2c1=O (configuration not stated) [Erastin]
Settings	relative cell number
sgRNA knockout: sgATF3, 10 nM	85.5
sgRNA knockout: sgATF3, 100 nM	106
sgRNA knockout: sgATF3, 1000 nM	109
sgRNA knockout: sgATF3, 10000 nM	79.2
sgRNA knockout: sgATF4, 10 nM	89.6
sgRNA knockout: sgATF4, 100 nM	107
sgRNA knockout: sgATF4, 1000 nM	89
sgRNA knockout: sgATF4, 10000 nM	59.7
sgRNA knockout: sgATF6, 10 nM	91.8
sgRNA knockout: sgATF6, 100 nM	103
sgRNA knockout: sgATF6, 1000 nM	84.5
sgRNA knockout: sgATF6, 10000 nM	74.2
sgRNA knockout: sgATG7, 10 nM	99.5
sgRNA knockout: sgATG7, 100 nM	82.2
sgRNA knockout: sgATG7, 1000 nM	76.2
sgRNA knockout: sgATG7, 10000 nM	71
sgRNA knockout: sgERN1, 10 nM	95.6
sgRNA knockout: sgERN1, 100 nM	97.7
sgRNA knockout: sgERN1, 1000 nM	79.2
sgRNA knockout: sgERN1, 10000 nM	78.1
sgRNA knockout: sgHSF1, 10 nM	82.2
sgRNA knockout: sgHSF1, 100 nM	87.2
sgRNA knockout: sgHSF1, 1000 nM	105
sgRNA knockout: sgHSF1, 10000 nM	54.1
sgRNA knockout: sgHSF2, 10 nM	93.4
sgRNA knockout: sgHSF2, 100 nM	89.9
sgRNA knockout: sgHSF2, 1000 nM	84.2
sgRNA knockout: sgHSF2, 10000 nM	68.82
sgRNA knockout: sgKEAP1, 10 nM	102
sgRNA knockout: sgKEAP1, 100 nM	93.3
sgRNA knockout: sgKEAP1, 1000 nM	103
sgRNA knockout: sgKEAP1, 10000 nM	64.8
sgRNA knockout: sgNFE2L2, 10 nM	94.6
sgRNA knockout: sgNFE2L2, 100 nM	98
sgRNA knockout: sgNFE2L2, 1000 nM	80.2
sgRNA knockout: sgNFE2L2, 10000 nM	71.1
sgRNA knockout: sgSLC35F2, 10 nM	93.9
sgRNA knockout: sgSLC35F2, 100 nM	80
sgRNA knockout: sgSLC35F2, 1000 nM	95.9
sgRNA knockout: sgSLC35F2, 10000 nM	66
sgRNA knockout: sgXBP1, 10 nM	96.9
sgRNA knockout: sgXBP1, 100 nM	84.6
sgRNA knockout: sgXBP1, 1000 nM	94
sgRNA knockout: sgXBP1, 10000 nM	78.4

C=C1C[C@@H]2[C@H](CC[C@]3(C)C(=O)CC[C@@H]23)[C@@]2(C)C=CC(=O)C=C12 [Exemestane]
Settings	relative cell number
sgRNA knockout: sgATF3, 10 nM	118
sgRNA knockout: sgATF3, 100 nM	83.2
sgRNA knockout: sgATF3, 1000 nM	136
sgRNA knockout: sgATF3, 10000 nM	91.3
sgRNA knockout: sgATF4, 10 nM	107
sgRNA knockout: sgATF4, 100 nM	100
sgRNA knockout: sgATF4, 1000 nM	100
sgRNA knockout: sgATF4, 10000 nM	81.29
sgRNA knockout: sgATF6, 10 nM	92.5
sgRNA knockout: sgATF6, 100 nM	91.3
sgRNA knockout: sgATF6, 1000 nM	119
sgRNA knockout: sgATF6, 10000 nM	81
sgRNA knockout: sgATG7, 10 nM	131
sgRNA knockout: sgATG7, 100 nM	118
sgRNA knockout: sgATG7, 1000 nM	102.5
sgRNA knockout: sgATG7, 10000 nM	101
sgRNA knockout: sgERN1, 10 nM	108
sgRNA knockout: sgERN1, 100 nM	103
sgRNA knockout: sgERN1, 1000 nM	113
sgRNA knockout: sgERN1, 10000 nM	107.5
sgRNA knockout: sgHSF1, 10 nM	106
sgRNA knockout: sgHSF1, 100 nM	87.9
sgRNA knockout: sgHSF1, 1000 nM	98.9
sgRNA knockout: sgHSF1, 10000 nM	99.2
sgRNA knockout: sgHSF2, 10 nM	109
sgRNA knockout: sgHSF2, 100 nM	93.3
sgRNA knockout: sgHSF2, 1000 nM	122
sgRNA knockout: sgHSF2, 10000 nM	79.6
sgRNA knockout: sgKEAP1, 10 nM	104
sgRNA knockout: sgKEAP1, 100 nM	92.9
sgRNA knockout: sgKEAP1, 1000 nM	108
sgRNA knockout: sgKEAP1, 10000 nM	94.5
sgRNA knockout: sgNFE2L2, 10 nM	108
sgRNA knockout: sgNFE2L2, 100 nM	85.9
sgRNA knockout: sgNFE2L2, 1000 nM	111
sgRNA knockout: sgNFE2L2, 10000 nM	72.4
sgRNA knockout: sgSLC35F2, 10 nM	102
sgRNA knockout: sgSLC35F2, 100 nM	104
sgRNA knockout: sgSLC35F2, 1000 nM	93.3
sgRNA knockout: sgSLC35F2, 10000 nM	110
sgRNA knockout: sgXBP1, 10 nM	104
sgRNA knockout: sgXBP1, 100 nM	109.4
sgRNA knockout: sgXBP1, 1000 nM	119
sgRNA knockout: sgXBP1, 10000 nM	112

CC(C)(C)OC(=O)CN(Cc1ccc(Cl)cc1)Cc1ccc([N+](=O)[O-])s1 [GSK4112]
Settings	relative cell number
sgRNA knockout: sgATF3, 10 nM	96.3
sgRNA knockout: sgATF3, 100 nM	96.7
sgRNA knockout: sgATF3, 1000 nM	101
sgRNA knockout: sgATF3, 10000 nM	86.4
sgRNA knockout: sgATF4, 10 nM	82.2
sgRNA knockout: sgATF4, 100 nM	94.4
sgRNA knockout: sgATF4, 1000 nM	89.6
sgRNA knockout: sgATF4, 10000 nM	102
sgRNA knockout: sgATF6, 10 nM	88.7
sgRNA knockout: sgATF6, 100 nM	94.1
sgRNA knockout: sgATF6, 1000 nM	89.5
sgRNA knockout: sgATF6, 10000 nM	101
sgRNA knockout: sgATG7, 10 nM	74.5
sgRNA knockout: sgATG7, 100 nM	92.1
sgRNA knockout: sgATG7, 1000 nM	98.4
sgRNA knockout: sgATG7, 10000 nM	102
sgRNA knockout: sgERN1, 10 nM	98.3
sgRNA knockout: sgERN1, 100 nM	109
sgRNA knockout: sgERN1, 1000 nM	87.5
sgRNA knockout: sgERN1, 10000 nM	97.9
sgRNA knockout: sgHSF1, 10 nM	78.8
sgRNA knockout: sgHSF1, 100 nM	102
sgRNA knockout: sgHSF1, 1000 nM	116
sgRNA knockout: sgHSF1, 10000 nM	101
sgRNA knockout: sgHSF2, 10 nM	80.1
sgRNA knockout: sgHSF2, 100 nM	96.42
sgRNA knockout: sgHSF2, 1000 nM	74
sgRNA knockout: sgHSF2, 10000 nM	104
sgRNA knockout: sgKEAP1, 10 nM	92.7
sgRNA knockout: sgKEAP1, 100 nM	89.1
sgRNA knockout: sgKEAP1, 1000 nM	95
sgRNA knockout: sgKEAP1, 10000 nM	91.1
sgRNA knockout: sgNFE2L2, 10 nM	89
sgRNA knockout: sgNFE2L2, 100 nM	99.4
sgRNA knockout: sgNFE2L2, 1000 nM	88
sgRNA knockout: sgNFE2L2, 10000 nM	98.8
sgRNA knockout: sgSLC35F2, 10 nM	83.2
sgRNA knockout: sgSLC35F2, 100 nM	116
sgRNA knockout: sgSLC35F2, 1000 nM	92.5
sgRNA knockout: sgSLC35F2, 10000 nM	103
sgRNA knockout: sgXBP1, 10 nM	104
sgRNA knockout: sgXBP1, 100 nM	94.1
sgRNA knockout: sgXBP1, 1000 nM	129
sgRNA knockout: sgXBP1, 10000 nM	115
